“And” between values parts separate entries of the source, which are not always exact repeats. Equal entries are not always repeated. At least one peptide structure holds a part that was inferred or is arguable (an end, a ring closure or a residue).
Assays:
[1] = tested on: autologous EBV-transformed B cells; assay: human CTL assay: 6-hr 51Cr release from peptide-pulsed autologous EBV-transformed B cells with unstimulated PBMC as effectors; assay type: cell-based; conditions: for specific killing of peptide-preincubated targets by PBMC: 2 HIV seropositive patients; for specific killing of peptide-preincubated targets by PBMC / killing of peptide-incubated targets by PBMC: 10 μM peptide overnight, FIG. 4; for killing of peptide-incubated targets by PBMC: 2 seronegative donors; for level of killing (% specific 51Cr release): maximal E:T ratio (80 or 40:1), FIG. 5
CTL line Pol a = assay: murine CTL assay: 51Cr release from peptide-pulsed L-cells with CTL line Pol a; assay type: cell-based; conditions: for maximal specific release / EC50: peptide analog titration on L-cells, Pol a effectors, FIG. 3; for EC50: read-out: concentration needed to obtain half-maximal activity (half-maximal lysis)
[2] = HIV seropositive patients, in 5 of the 12 patients
[3] = seronegative donors (5 controls)

| SMILES | specific killing of peptide-preincubated targets by PBMC [1] | killing of peptide-incubated targets by PBMC [1] | level of killing (% specific 51Cr release) [1, 2] | level of killing (% specific 51Cr release) [1, 3] | % specific release ([1]; two HIV+ patients left out of FIG. 5, no adequate negative control available, listed as 205-219) | killing of HP 138-pulsed targets by Pol a (CTL line Pol a; 3T3 fibroblasts (H-2d) or EL4 thymoma cells (H-2b) as targets) | killing of HP 138-pulsed targets by Pol a (CTL line Pol a; Class II MHC molecule-negative H-2k L-cell fibroblasts as targets) | sensitization of targets for lysis by Pol a (CTL line Pol a; L-cells incubated overnight with peptide at 20 μM, FIG. 2) | maximal specific release (CTL line Pol a) | EC50 (CTL line Pol a) | fold lower concentration needed to obtain half-maximal activity (CTL line Pol a; versus HP138 (205-219)) |
| --- | --- | --- | --- | --- | --- | --- | --- | --- | --- | --- | --- |
| CC[C@H](C)[C@H](NC(=O)[C@H](CCCCN)NC(=O)[C@H](CO)NC(=O)[C@@H](NC(=O)[C@H](CCCCN)NC(=O)CNC(=O)[C@H](CCC(=O)O)NC(=O)[C@H](CCCCN)NC(=O)[C@H](CCC(=O)O)NC(=O)[C@H](CCSC)NC(=O)[C@H](CCC(=O)O)NC(=O)[C@@H](NC(=O)[C@@H](N)CS)[C@@H](C)O)[C@@H](C)CC)C(=O)NCC(=O)N1CCC[C@H]1C(=O)O [HP138] | able to kill specifically | failed to kill | higher than 10% | <0 to 3.2% | 11% and 12% | not | killed | found to sensitize targets | 40% | ~10000 nM |  |
| CC[C@H](C)[C@H](NC(=O)[C@H](CCCCN)NC(=O)[C@H](CO)NC(=O)[C@@H](NC(=O)[C@H](CCCCN)NC(=O)CNC(=O)[C@H](CCC(=O)O)NC(=O)[C@H](CCCCN)NC(=O)[C@H](CCC(=O)O)NC(=O)[C@H](CCSC)NC(=O)[C@H](CCC(=O)O)NC(=O)[C@@H](NC(=O)[C@H](CS)NC(=O)[C@@H](NC(=O)[C@@H](N)CCC(=O)O)[C@@H](C)CC)[C@@H](C)O)[C@@H](C)CC)C(=O)NCC(=O)N1CCC[C@H]1C(=O)O [203-219] | able to kill specifically | failed to kill | higher than 10% | <0 to 3.2% |  |  |  |  | more than 60% | ~300 nM | 30 fold |
| CC[C@H](C)[C@H](NC(=O)[C@H](CCCCN)NC(=O)[C@H](CO)NC(=O)[C@@H](NC(=O)[C@H](CCCCN)NC(=O)CNC(=O)[C@H](CCC(=O)O)NC(=O)[C@H](CCCCN)NC(=O)[C@H](CCC(=O)O)NC(=O)[C@H](CCSC)NC(=O)[C@H](CCC(=O)O)NC(=O)[C@@H](NC(=O)[C@H](CS)NC(=O)[C@@H](NC(=O)[C@@H](N)CCC(=O)O)[C@@H](C)CC)[C@@H](C)O)[C@@H](C)CC)C(=O)NCC(=O)O [203-218] |  |  |  |  |  |  |  |  | did not modify the maximal activity | 1000 nM |  |

Reference: patent US5336758A, “Peptides stimulating cytotoxic T cells immune to HIV RT” (The United States of America as represented by the …, priority 1990, dated 1994)
